# Experimental data as given in PubChem BioAssay AID1259354 (Paczesny and Yang Labs, IUPUI and University of Michigan, 2018).
# Protein sequences, listed by entry. Tags and fused reporters are not part of them. Lines headed by an entry give the natural chain unless they say otherwise; changes in a name come on top.
# UniProt Q01638: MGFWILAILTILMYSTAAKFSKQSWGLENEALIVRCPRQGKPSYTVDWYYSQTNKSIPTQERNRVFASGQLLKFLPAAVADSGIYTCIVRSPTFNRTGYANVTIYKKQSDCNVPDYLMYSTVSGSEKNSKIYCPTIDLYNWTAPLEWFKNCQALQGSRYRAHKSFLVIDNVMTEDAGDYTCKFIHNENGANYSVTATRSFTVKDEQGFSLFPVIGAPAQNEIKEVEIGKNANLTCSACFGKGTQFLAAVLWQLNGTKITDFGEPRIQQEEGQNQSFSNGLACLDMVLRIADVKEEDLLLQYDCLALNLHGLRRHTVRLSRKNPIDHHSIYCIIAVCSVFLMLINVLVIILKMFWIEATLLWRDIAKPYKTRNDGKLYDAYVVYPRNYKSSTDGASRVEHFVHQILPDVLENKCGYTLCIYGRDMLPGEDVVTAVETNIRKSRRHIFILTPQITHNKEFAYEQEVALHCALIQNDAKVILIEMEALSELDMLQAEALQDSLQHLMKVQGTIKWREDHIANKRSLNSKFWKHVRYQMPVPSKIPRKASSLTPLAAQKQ
# Among all 78,000 compounds or so, about 1,800 (2.3%) were called active. Inconclusive means that the source gave no clear call. Such entries were picked first, then a sample of the others. Cut-off read from the data, not from the text of the source: active = inhibition above about 30%; inconclusive = mostly about 10% to 28%; inactive = weaker than that. More than one record can exist for a structure, and the calls need not agree.
# Biological target: Interleukin-1 receptor-like 1 (Homo sapiens) (UniProt Q01638)
# Experiment: blocks human ST2 binding to IL-33, primary screen, biochemical, AlphaLISA (AID 1259354)
# Details: AlphaLISA ST2-Fc/biotin-IL-33 interaction, 1 h; at 17 µM, hits give high values
row,SMILES,inhibition
1,O=C(Nc1ccc(I)cc1)c1ccc(Cl)cc1Cl,inactive
2,Nc1ncnc(Nc2ccc(Oc3ccccc3)cc2)c1[N+](=O)[O-],inactive
3,COCCOc1ncccc1-c1noc([C@@H]2CCCN2C2CCOCC2)n1,inconclusive: 15%
4,CCCCOc1ccc(C(=O)Nc2cc3cc(Br)ccc3oc2=O)cc1,inactive
5,O=[N+]([O-])c1ccc(C=Nc2ccccc2-c2nc3ccccc3[nH]2)o1,inconclusive: 10%
6,O=[N+]([O-])c1cccc(N=Cc2[nH]c3ccc(Br)c(Cl)c3c2O)c1,inconclusive: 17%
7,COc1cccc2c1NC(C)(C)C=C2C,active: 46%
8,CC(C)(C)CC(=O)NC1CC(=O)N(c2cccc(F)c2)C1 (configuration not stated),inactive
9,COc1ccc(CN2C[C@H](O)C[C@H]2c2nc(-c3ccc4c(c3)OCO4)no2)cc1,inconclusive: 17%
10,Nc1nc2ccccc2n1Cc1ccc(Cl)cc1,inactive
11,Cc1ccncc1C(=O)NC1CC(=O)N(CCc2ccc(F)cc2)C1 (configuration not stated),inactive
12,CCOC(=O)C1C(=O)C=C(c2ccc(F)cc2)CC1c1cccc(OC)c1OC (configuration not stated),inactive
13,CC(CO[C@@H]1O[C@H](COC(=O)/C=C/c2ccc(O)c(O)c2)[C@@H](O)[C@H](O)[C@H]1O)C1(O)COC(=O)C1 (some centres not stated),inconclusive: 15%
14,CCCc1nc(C(=O)N(C)Cc2cnc3ccccc3n2)cs1,inconclusive: 12%
15,COc1ccc(C(N)=O)cc1NC(C)=O,inconclusive: 15%
16,CCCc1nc(C(=O)NCCC2CN(C)CCO2)cs1 (configuration not stated),inconclusive: 28%
17,Cc1cccnc1-c1ccc2c(c1)CC(CNC(=O)c1ccccc1)O2 (configuration not stated),inconclusive: 14%
18,O=C(NCc1ccc(F)cc1)c1cc(-c2ccc(F)cc2)on1,inactive
19,c1cncc(CNc2cc(-c3ccc4c(c3)OCO4)c3cc[nH]c3n2)c1,inconclusive: 20%
20,CCOc1ccc(N2CN=c3s/c(=C\c4ccco4)c(=O)n3C2)cc1,inconclusive: 19%
21,CCOc1ccc(C2C3=C(CCCC3=O)Nc3nc(SC)[nH]c(=O)c32)cc1 (configuration not stated),inactive
22,Nc1nc(-c2ccco2)cc(C(F)(F)F)n1,inactive
23,COc1cc(CN2CCN(Cc3ccccc3)CC2)cc([N+](=O)[O-])c1O,inconclusive: 13%
24,O=C(O)c1ccc(CN2CC[C@H](c3nnc(-c4ccccc4)o3)C2)cc1,inactive

row,SMILES,inhibition
1,Cc1cc2ccccc2c(=O)n1CC(=O)N1CCCCCC1,inactive
2,Cc1cc(C)c(C(=O)N(CCN(C)C)CC2CCCN(Cc3ccccc3F)C2)o1 (configuration not stated),inconclusive: 19%
3,COc1ccccc1OCCNC(=O)c1ccccc1O,inactive
4,COC(=O)C1C(=O)C2=C(CC1C)NC(C)=C(C(=O)OCCOC(C)C)C2c1cccc(Cl)c1 (configuration not stated),inactive
5,CCOc1ccc2nc(SC3CC(=O)N(c4cccc(Cl)c4C)C3=O)sc2c1 (configuration not stated),inconclusive: 14%
6,Cc1nc2sccn2c1C(=O)NC1CC(C)(C)Cc2c1cnn2-c1ccccc1 (configuration not stated),inactive
7,Cc1ccc(C(O)C#CC(O)(c2ccccc2)c2ccccc2)o1 (configuration not stated),inconclusive: 25%
8,COc1ccc(-c2nn(-c3ccccc3)cc2CN(C)Cc2cnccn2)c(F)c1,inactive
9,COC(=O)CNC(=O)N1CC[C@@](O)(c2ccccc2)[C@H]2CCCC[C@@H]21,inconclusive: 13%
10,O=C(c1ccccc1NS(=O)(=O)c1ccc(Br)cc1)N1CCCC1,inactive
11,O=c1c2cnn(-c3ccc(Cl)cc3)c2ncn1C/C=C/c1ccccc1,inconclusive: 17%
12,CCN(CC)c1ccc(C2CC(=O)C3=C(C2)Nc2ccccc2N(C(C)=O)C3c2ccco2)cc1 (configuration not stated),inconclusive: 12%
13,O=C1C2C(c3ccc(Cl)cc3)OC3(C(=O)c4ccccc4C3=O)C2C(=O)N1C1CCCCC1 (configuration not stated),inconclusive: 12%
14,O=[N+]([O-])c1ccc(CN2CCN(C/C=C/c3ccccc3)CC2)cc1,inconclusive: 13%
15,COc1ccc2cc3cc(C(=O)NCCCN4CCCCCC4)oc3nc2c1,active: 31%
16,Cc1cc2c3c(c1)C1C=CCC1C(C(=O)O)N3CC1CC=CC21 (configuration not stated),active: 33%
17,CCCn1ccnc1CN1CCc2[nH]cnc2C1Cc1ccccc1 (configuration not stated),inconclusive: 13%
18,CCn1nc(C)c(-c2nc3c([nH]2)c(C)nn3-c2ccc(C)cc2)c1C,inconclusive: 11%
19,CN(C)CCNC(=O)c1cc2c(-c3ccc(Cl)cc3)nn(C)c2s1,inconclusive: 14%
20,CC(C)NC(=O)C[C@@H]1O[C@H](CNC(=O)c2ccco2)[C@@H](O)[C@H]1O,inconclusive: 26%
21,C(=C\c1ccccc1)/Sc1ccc2ccccc2n1,active: 34%
22,Cn1c(=O)n(Cc2ccccc2)c(=O)c2c1nc1n2CCN1c1ccccc1,inconclusive: 13%
23,COc1ccc(/C=C/CN2CCC(CCC(=O)Nc3ccccc3Cl)CC2)cc1,inconclusive: 11%

# Of the compounds above, two contain a COOH group.
row,SMILES,inhibition
24,O=C(O)c1ccc(CN2CC[C@H](c3nnc(-c4ccccc4)o3)C2)cc1,inactive
16,Cc1cc2c3c(c1)C1C=CCC1C(C(=O)O)N3CC1CC=CC21 (configuration not stated),active: 33%
